Article PMC4414141
The exact form of at least one protein or probe is not confirmed. For some assays here: Weaker means in comparison with the reference protein, sequence or condition of that experiment. For some assays here: Where a protein sequence is shown, tags need not be part of it.

Chains of the proteins cited; added tags and fusions are not shown. Residues count along the entry.
UniProt P11474, 76-151: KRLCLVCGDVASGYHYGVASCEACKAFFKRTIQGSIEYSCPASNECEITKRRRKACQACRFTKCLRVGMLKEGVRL

Experiments:
Assay in all cases: EMSA
[1] = target: ERRalpha DBD (UniProt P11474); details: EMSA: 50 nM bacterially purified protein, 60 ng poly(dI-dC); recombinant protein; protein details: GST
[2] = target: ERRalpha FL (UniProt P11474); details: EMSA: 50 nM bacterially purified protein, 60 ng poly(dI-dC); recombinant protein; protein details: GST
[3] = target: T1, CUX1 CR1 (UniProt P39880); details: only a weak complex; EMSA: 50 nM bacterially purified protein, 60 ng poly(dI-dC); recombinant protein; protein details: N-terminal His
T1 sequence (looked up, limits assumed): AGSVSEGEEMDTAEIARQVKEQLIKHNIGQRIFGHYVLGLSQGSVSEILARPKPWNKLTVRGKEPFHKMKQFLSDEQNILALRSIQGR

[4] = target: T2, CUX1 CR1CR2 (UniProt P39880); details: strong complex; EMSA: 50 nM bacterially purified protein, 60 ng poly(dI-dC); recombinant protein; protein details: N-terminal His
T2 sequence (looked up, limits assumed): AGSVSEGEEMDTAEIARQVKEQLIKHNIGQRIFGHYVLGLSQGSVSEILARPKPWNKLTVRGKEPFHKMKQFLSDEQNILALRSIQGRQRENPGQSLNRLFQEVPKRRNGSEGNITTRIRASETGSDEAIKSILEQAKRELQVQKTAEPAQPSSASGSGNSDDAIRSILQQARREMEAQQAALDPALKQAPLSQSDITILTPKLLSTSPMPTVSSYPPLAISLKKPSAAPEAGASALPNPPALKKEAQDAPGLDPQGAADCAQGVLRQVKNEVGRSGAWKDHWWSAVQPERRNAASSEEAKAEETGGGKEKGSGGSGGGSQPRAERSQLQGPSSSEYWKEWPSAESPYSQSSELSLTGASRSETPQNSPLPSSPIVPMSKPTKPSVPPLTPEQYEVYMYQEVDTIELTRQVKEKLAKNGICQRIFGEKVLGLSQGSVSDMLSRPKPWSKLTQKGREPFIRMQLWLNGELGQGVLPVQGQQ

[5] = system: CUX1 Inh-CR1CR2; details: binding greatly reduced vs CR1CR2; EMSA: 50 nM bacterially purified protein, 60 ng poly(dI-dC); recombinant protein; protein details: N-terminal His

GCGTCCAGATGAAGATCAAAGAA (double strand) [ERRalpha consensus binding site]
binding result [1]: binds
binding result [2]: binds

TCGAGAAATGAAGCTTATCGATATCGTCTCGA (double strand) [CUX1 consensus binding site]
binding result [3]: binds more weakly
binding result [4]: binds
binding result [5]: binds more weakly
